Results: patent publication US20090054259A1, “METHODS FOR INDUCING COMPLETE APOPTOSIS OF LIVER CELLS EXPRESSING HBCHI PROTEIN AND SCREENING FOR SUBSTANCES OR GENES THAT INHIBIT THE APOPTOSIS” (priority 2004, published 2009)

System: Chang X31 cells
Assay type: cell-based, human

CN[C@@H]1C[C@H]2O[C@@](C)([C@@H]1OC)n1c3ccccc3c3c4c(c5c6ccccc6n2c5c31)C(=O)NC4 [STS, staurosporine]
inhibition of the apoptosis of the liver cell line (conclusion): does not inhibit the apoptosis
